Measured values: PMC4962041
These are yes or no findings as the source states them, for the method shown.

Chains of the proteins cited; added tags and fusions are not shown. Residues count along the entry.
UniProt Q15843, residues 1-76: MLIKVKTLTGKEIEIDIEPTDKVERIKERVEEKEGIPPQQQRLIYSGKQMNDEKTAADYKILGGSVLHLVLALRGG

T1: hDdi2 UBL domain (residues 1-76) (human) (UniProt Q5TDH0)
T1 sequence: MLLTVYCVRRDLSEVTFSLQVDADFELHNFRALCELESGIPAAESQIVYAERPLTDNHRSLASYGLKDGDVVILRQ


Tests used:
[1] = biological target: Nedd8 (UniProt Q15843); assay: NMR titration; NMR chemical shift perturbation experiments with Nedd8 (expressed 15N-labelled); details in the Supplementary Information; both purified
[2] = biological target: T1, hDdi2 UBL domain (residues 1-76) (human); assay: NMR titration; 15N-labelled hDdi2 UBL (0.1 mM) with peptide to a final concentration of 1.9 mM; 50 mM sodium phosphate, pH 7.4, 25 °C; both purified
[3] = biological target: human ubiquitin (human) (UniProt P0CG48); assay: NMR titration; 15N-labelled UBQ (0.1 mM) with unlabelled peptide; 15N/1H-HSQC chemical shift perturbation; 50 mM sodium phosphate, pH 6.0 and pH 7.4, 25 °C; 1:1 model for the Kd; both purified

binding [1] | binding [2] | binding [3] | Binder
no binding | – | – | hDdi2 UBL domain (residues 1-76) (domain or fragment, UniProt Q5TDH0 1-76) MLLTVYCVRRDLSEVTFSLQVDADFELHNFRALCELESGIPAAESQIVYAERPLTDNHRSLASYGLKDGDVVILRQ
no binding | no binding (tested: 1.9 mM) | – | EEIADQELAEALQKSAEDAE (C-terminal amide) [hDdi2-UIM peptide]
– | no binding (tested: 1.9 mM) | no binding (tested: 1.9 mM) | AELEQIAEDALEKEDSQEAA (C-terminal amide) [hDdi2-scrambled UIM peptide]
